# Test results as given in PubChem BioAssay AID1794845 (National Center for Advancing Translational Sciences (NCATS), 2023).
# Amino acid sequences for entries named in this document (tags omitted). A change or cut given only in a name is not applied to a line headed by its entry.
# UniProt C7C422: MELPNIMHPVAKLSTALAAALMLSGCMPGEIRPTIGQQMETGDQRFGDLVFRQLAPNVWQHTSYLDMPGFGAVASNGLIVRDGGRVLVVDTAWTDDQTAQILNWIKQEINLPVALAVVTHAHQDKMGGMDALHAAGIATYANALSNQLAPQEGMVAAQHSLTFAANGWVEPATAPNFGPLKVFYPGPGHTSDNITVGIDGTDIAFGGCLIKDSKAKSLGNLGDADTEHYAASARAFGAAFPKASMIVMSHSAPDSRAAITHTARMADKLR
# Out of some 6,900 compounds screened, fewer than 10 were called active. The call rests on the fitted dose curve; in most records, active means well fitted curve in the direction sought with a large enough effect; inconclusive means small, poorly fitted or top-dose-only effect, or another doubt; inactive means no such curve, though single readings can be large or run the other way. This is one part of the list.
# Target: Metallo-beta-lactamase type 2 (Klebsiella pneumoniae) (UniProt C7C422)
# Test: qHTS to identify inhibitors of the New Delhi Metallo-beta-lactamase (NDM): primary screen against the NCATS Gemini Collection; further: % of control where 0% means no effect
# Settings: NDM-1 enzyme, meropenem hydrolysis, absorbance 300 nm; at 38.4 µM (top of the series) unless noted
# Excerpt: Assay Submitter (PI): James Inglese Ph.D., Patricia Dranchak Ph.D., Mahesh Aitha Ph.D. Assay Development and Screening Technology Laboratory (ADST) National Center for Advancing Translational Sciences (NCATS), Rockville, MD National Institute of Health (NIH), Bethesda, Maryland The metallo-beta-lactamases (MBL) are a main antibiotic resistance mechanism evolved by bacteria. There is an urgent clinical need for MBL inhibitors to mitigate this growing threat. To support a machine-based learning study, qHTS has been used to experimentally test inhibitors identified by prediction tools.
# PROTOCOL TABLE (as described by Inglese et al., 2007) SEQUENCE No. (e.g., 1, 2, 3, etc.); […] (e.g., enzyme, Incubation, Reagent, etc.); VALUE; DESCRIPTION 1; NDM-1; 4 uL of 3 nM enzyme [2 nM final] in 50 mM HEPES (pH 7.0), 1 uM […], 0.01% Tween20; Use BioRaptr to dispense into Aurora black, clear bottom low base 1536-well plates 2; Compounds; 23 nL; Use Pin Tool (Wako) to transfer DMSO control and library compounds in DMSO 3; Incubate; >30 min 4; Reagent; 2 uL of 150 uM meropenem [50 uM final] 5; Incubate; 30 min. 6; Detector; Absorbance at 300 nm (bandwidth = 5 nm, 25 flashes/well) on Tecan Infinity NOTES (numbers refer to sequence above) 1; Column 1 of each plate received assay buffer without enzyme and columns 2-48 received enzyme for a final assay concentration of 2 nM. 2; Control plate contained DMSO in columns 1, 2, 3, and 4. 3; Compound interaction with enzyme. 4; Meropenem substrate was prepared in the same assay buffer as step 1 for a final assay concentration of 50 uM and added to all wells across the assay plates. 5; Substrate interaction with enzyme, plateau phase of kinetics. 6; Default reader settings were applied for absorbance read at 300 nm, bandwidth = 5 nm, 25 flashes/well. References: Inglese J, Shamu CE, Guy RK. 2007. Reporting data from high-throughput screening of small-molecule libraries. Nat Chem Biol. doi:10.1038/nchembio0807-438 Yasgar A, Shinn P, Jadhav A, Auld D, Michael S, Zheng W, Austin CP, Inglese J, Simeonov A. 2008. Compound Management for Quantitative High-Throughput Screening. J Lab Autom 13:79 - 89. doi:10.1016/j.jala.2007.12.004
row,SMILES,activity % (negative = inhibition)
1,C[S+](=O)([O-])N1CC2(CCCCN2Cc2ccc(Cl)cc2)Cc2ccccc21 (stereo not drawn),inactive: -5.65%
2,CC(C)c1ccc(CN2CC(CNC(=O)c3cnn(C)c3)C3(C2)CN(c2ccccc2)C3)cc1 (stereo not drawn),inactive: -1.54%
3,COCCC1(NS(=O)(=O)N(C)C)CCN(S(C)(=O)=O)CC1,inactive: 21.7%
4,CNCc1cn(C[C@H]2O[C@@H](CC(=O)NCc3ccc(F)cc3)[C@H](O)[C@@H]2O)nn1,inactive: 20.6% [at 57.5 µM]
5,CCNC(=O)NC1(CCOC)CCN(C(=O)c2ccoc2)CC1,inactive: 5.67%
6,Cc1ccsc1CN1CCC2(CC1)Cc1ccccc1CNC2=O,inactive: 0.234%
7,COc1ccccc1C(=O)N1CCCCCC1CN1CCc2ccccc2C1 (stereo not drawn),inactive: 4.66%
8,Cc1ccc(-c2cccc(CN3CCCC(c4nc5ccc(C)cc5c(=O)[nH]4)C3)c2)c(C)c1 (stereo not drawn),inactive: -0.327%
9,O=C(CCn1ccc(=O)[nH]c1=O)N[C@H](c1cccs1)C1CC(O)C1 (stereo partly drawn),inactive: 0.26%
10,COc1cccc(S(=O)(=O)N2C[C@@H](F)C[C@H]2C(=O)N2CCc3ccccc3C2)c1,inactive: -2.34%
11,O=C(c1cc(-c2ccc(F)cc2)n[nH]1)N1CCC(OCC2CC2)C1 (stereo not drawn),inactive: -0.497%
12,COC[C@H]1CCCN1Cc1nc(C2(O)CCN(C(=O)CC(C)(C)C)CC2)cs1,inactive: -2.78% [at 57.5 µM]
13,CCCNC(=O)C1COC2(CCN(C(=O)Cc3ccccc3)CC2)N1C(=O)c1cccc(C)c1 (stereo not drawn),inactive: -13%
14,COc1ccccc1N1CCN([C@@H]2[C@H](O)[C@H](CO)O[C@@H]2CNC2CCCCC2)CC1,inactive: 19.4%
15,CCNC(=O)N1CCC[C@@H](O)[C@H](NC(=O)c2ccc(OCc3c(C)noc3C)cc2)C1,inactive: 17.7% [at 57.5 µM]
16,COc1cc2c(cc1CN1CCn3nc(C(O)CO)cc3C1)OCCO2 (stereo not drawn),inactive: -4.89%
17,O=C1[C@H]2CN(Cc3cccc(Cl)c3F)C[C@H]2C(=O)N1Cc1ccc2c(c1)OCO2,inactive: 2.66%
18,COc1cccc([S+](=O)([O-])N2CCC3(C2)C(=NC2CCCCC2)NC(=O)N3c2cc(F)cc(F)c2)c1 (stereo not drawn),inactive: -0.878%
19,Cn1cccc1C(=O)N[C@H]1C[C@@H](C(=O)O)N(C(=O)CSCC(=O)N2C[C@@H](NC(=O)c3cccn3C)C[C@H]2C(=O)O)C1,inactive: 5.41%
20,O=C(CC1C(=O)NCCN1Cc1cccc(Oc2ccccc2)c1)NCc1ccoc1 (stereo not drawn),inactive: 28.6%
21,O=C([C@H]1C[C@H](Oc2cccnc2)CN1C(=O)Nc1ccccc1)N1CCOCC1,inactive: 0.94%

row,SMILES,activity % (negative = inhibition)
1,CC(C)=CC(=O)N1C[C@@H](NC(=O)NC2CCCCC2)C[C@H]1C(=O)N[C@H](Cc1c[nH]c2ccccc12)C(N)=O,inactive: 0.347%
2,O=S(=O)(c1ccccc1Cl)N1CCC(c2noc(COCc3ccccc3)n2)CC1,inactive: 32%
3,O=C(NCc1ccc(Cl)s1)C1CCCN(C2CCN(C(=O)C3CC3)CC2)C1 (stereo not drawn),inactive: -0.743%
4,C=CCNC(=O)N[C@H]1C[C@@H](C(=O)N[C@H](Cc2c[nH]c3ccccc23)C(N)=O)N(C(=O)c2cccn2C)C1,inactive: -0.822%
5,COCc1ccccc1-c1cn(C)c(=O)n2cc(COc3ccc(Cl)cc3)nc12,inactive: 5.28% [at 57.5 µM]
6,Cc1cccc(S(=O)(=O)N2CCCC(Cn3cc(CO)nn3)C2)c1 (stereo not drawn),inactive: -1.37%
7,O=C(C1CCC(=O)N(C2CCCC2)C1)N1CCN(c2nccs2)CC1 (stereo not drawn),inactive: 2.26%
8,Cc1cc(C)n(CCC(=O)NCC2CCN(c3cc(-c4ccc(Cl)cc4)[nH]n3)CC2)n1,inactive: 14.7%
9,Cc1ccc(C(=O)N2CCC(Cc3noc(C4CCOCC4)n3)C2)s1 (stereo not drawn),inactive: 10.2%
10,O=C(c1cnc(C2CC2)nc1)N1CCC2(CCNCC2CO)CC1 (stereo not drawn),inactive: 4.98%
11,Cc1ccc(-n2cccc2CC(=O)N2CCCC2)cc1,inactive: 17.2%
12,Cc1ccc(CN2CCN(Cc3ccc(=O)n(C)c3)CC2)cc1,inactive: 0.52%
13,CN1C(=O)CCC2(CNC(=O)CCc3c[nH]c4ccccc34)CCC=C12 (stereo not drawn),inactive: 2.26%
14,CCN1CCN(CCNC(=O)CN2CCCc3nc(C4CC4)ncc3C2=O)CC1,inactive: 2.43%
15,N#Cc1ccc(-n2nc(C3CCOCC3)nc2C2(C(N)=O)CC2)cc1,inactive: 0.22%
16,CN1CCC(N2CC[C@H](c3nc4ccccc4[nH]3)C2)CC1,inactive: 8.24% [at 77.1 µM]
17,O=C(NCCCc1ccccc1F)[C@@]12CNC[C@@H]1CN(Cc1ccccc1)C2,inactive: 2.98%
18,C[C@H]1CN(C(=O)CCCc2ccccc2)C[C@@H]1c1nc(-c2ccccc2)no1,inactive: 0.89%
19,CCNC(=O)N1CCCC(Cc2noc(-c3cnccn3)n2)C1 (stereo not drawn),inactive: 5.12%
20,O=C(CCn1cnnn1)N1CCCC(CCc2cccc(C(F)(F)F)c2)C1 (stereo not drawn),inactive: 3.31%
21,CC1(C)C(=O)N(CCOc2ccccc2)[C@H]2CN(CC3CCOC3)C[C@H]2[S+]1(=O)[O-] (stereo partly drawn),inactive: 6.92% [at 57.5 µM]

# Three entries picked at random from those above, as already listed:
row,SMILES,activity % (negative = inhibition)
12,Cc1ccc(CN2CCN(Cc3ccc(=O)n(C)c3)CC2)cc1,inactive: 0.52%
21,CC1(C)C(=O)N(CCOc2ccccc2)[C@H]2CN(CC3CCOC3)C[C@H]2[S+]1(=O)[O-] (stereo partly drawn),inactive: 6.92% [at 57.5 µM]
16,CN1CCC(N2CC[C@H](c3nc4ccccc4[nH]3)C2)CC1,inactive: 8.24% [at 77.1 µM]

# Later entries.

row,SMILES,activity % (negative = inhibition)
1,Cc1cnn(CCC(=O)N2CCC3(CCNCC3)CC2)c1,inactive: -13.9%
2,Cc1nn(C)c(C)c1CCN(C)Cc1ccc(=O)n(C)c1,inactive: -5.59%
3,COc1ccc(C(=O)N2CCC3(C2)C(=O)Nc2ccccc23)cc1 (stereo not drawn),inactive: 1.38%
4,CSCc1noc(CN2CCCC(CO)(CC=C(C)C)C2)n1 (stereo not drawn),inactive: 11.2%
5,O=C(NCCc1ccc(Cl)cc1)c1nc(-c2ccc(Cl)cc2Cl)c2ccccn12,inactive: 9.91%
6,O=C(CNC(=O)c1cccc(-c2ccc(C(F)(F)F)cc2)c1)NCC(F)(F)F,inactive: 1.51%
7,O=C(c1cc(Br)cn2ccnc12)N1CCCC1,inactive: 2.44% [at 57.5 µM]
8,Cc1nn(C)c(C)c1CCCN(C)C(=O)c1ccc2c(c1)C(O)CCCCCN2C (stereo not drawn),inactive: -0.231%
9,O=C(NCC1CN(S(=O)(=O)c2cccnc2)CC12CCOCC2)N1CCCC1 (stereo not drawn),inactive: 14.3%
10,O=C(CCC1CCN(Cc2cn(-c3ccccc3)nn2)CC1)N1CCOCC1,inactive: -0.517%
11,COCC(=O)N[C@H]1C[C@@H](CO)N(Cc2ccsc2)C1,inactive: 6.31%
12,NC(=O)N1CCCC(C(=O)NCCCn2nccc2C2CC2)C1 (stereo not drawn),inactive: 0.843%
13,Cc1cnc(CN(C)Cc2cn(-c3ccccc3)nn2)[nH]1,inactive: 1.49%
14,CCC1c2nccn2CCCN1C(=O)Cn1c(=O)oc2ccccc21 (stereo not drawn),inactive: 7.56%
15,CCNC(=O)N1CCOc2ccc(CCC(=O)N3CCCCC3c3cccnc3)cc2C1 (stereo not drawn),inactive: 6.41%
16,COc1ccccc1N1CCN(C(=O)CC[C@]23CC[C@](C)(O)C[C@H]2C(C)(C)C[C@@H]3NC(=O)c2cccnc2)CC1,inactive: -2.02%
17,Cc1cc(C)c(C#N)c(N2CCC3(CCC(=O)N(CC(C)O)C3)CC2)n1 (stereo not drawn),inactive: 3.73%
18,CCOCc1nc(C2CCCN2S(=O)(=O)c2cn(C)cn2)no1 (stereo not drawn),inactive: 2.39%
19,O=C(c1cc(-c2ccccc2)nc2ccccc12)N1CCc2c(nc[nH]c2=O)C1,inactive: 3.06%
20,CCC(CC)Nc1ncnc2c1CN(C1CCC1)C(=O)CN2C,inactive: 5.71% [at 57.5 µM]
21,CN1C[C@H](O)C[C@H]1c1nnc2n1CCN(C(=O)C1CCCCC1)CC2,inactive: 41.5%

row,SMILES,activity % (negative = inhibition)
1,CCNC(=O)Nc1ccc([C@H]2OCC(=O)N(Cc3scnc3C)[C@@H]2CO)cc1,inactive: -0.857% [at 57.5 µM]
2,CC1=C[C@@H](CNS(C)(=O)=O)[C@H](C(C)C)C[C@H]1CC(=O)O,inactive: 7.2% [at 57.5 µM]
3,CCn1ccc(C(=O)N2CCCn3ccnc3C2c2cnn(C)c2)n1 (stereo not drawn),inactive: 2.16%
4,CSc1ncc(CN2CCC(n3nccc3NC(=O)Cc3ccccc3)CC2)cn1,inactive: 7.25%
5,N#Cc1ccccc1CN1CCN(Cc2ccccc2)CC(O)C1 (stereo not drawn),inactive: -0.749%
6,CC1=NOC(C(=O)N2CCCn3nc(C(=O)NCCN(C)C)cc3C2)C1 (stereo not drawn),inactive: -12.8%
7,C[S+](=O)([O-])N1CCn2c(nnc2-c2ccccc2)C1,inactive: -13.3% [at 57.5 µM]
8,Cc1cc2cc(-c3c(C)noc3C)nc(N3CCN(c4ccccn4)CC3)c2o1,inactive: 14.9% [at 57.5 µM]
9,Cc1noc(C)c1-c1cc2cc(C(C)C)oc2c(-c2ccc(CO)cc2)n1,inactive: 5.18% [at 57.5 µM]
10,Cn1ccnc1CN1CCOc2cc([S+](=O)([O-])Nc3ccccc3)ccc2C1,inactive: 0.216% [at 57.5 µM]
11,O=C1NCCCCCN(S(=O)(=O)c2ccc3c(c2)OCCO3)[C@H]2CCC[C@@H]12,inactive: 8.86%
12,O=C(c1ccc(Cl)cc1)N1CC(CO)C2(CCNCC2)C1 (stereo not drawn),inactive: 14.2%
13,Cc1cccc(CC(=O)N[C@@H]2CN(c3ccncn3)C[C@H]2CO)c1,inactive: 0.27%
14,CS(=O)(=O)N1Cc2ccccc2CC2(CCN(Cc3ccccn3)C2)C1 (stereo not drawn),inactive: -2.48%
15,CN(Cc1ccccc1C(F)(F)F)CC1CCCCC1,inactive: 0.658% [at 57.5 µM]
16,CC(=O)N1CCCN(Cc2nnc(C(=O)N3CCC[C@@H]3c3cccc(F)c3)n2-c2cccnc2)CC1,inactive: -6.3%
17,CC(C)c1nccn1CCCNC(=O)c1ccc(-c2cccc(F)c2)nc1,inactive: 1.92%
18,CCC(C)(C)C(=O)NCCc1noc(-c2ccccc2)n1,inactive: 0.937%
19,CC1(COc2ccccc2)COc2ccc(C(=O)N3CCN(c4ccccn4)CC3)cc2N1 (stereo not drawn),inactive: 1.72%
20,O=C1CN(Cc2cc3cc4c(cc3[nH]c2=O)OCO4)CCCN1,inactive: 1.39%
